Reference: publication PMC11295518
Results are given in words; binding and its absence hold for the method and conditions named. In cells and extracts the contact can be indirect. Some binding calls cover weakened binding; strength is not graded here.

Sequences of proteins named here, by UniProt entry; tags and fusion partners are left off.
UniProt P09651: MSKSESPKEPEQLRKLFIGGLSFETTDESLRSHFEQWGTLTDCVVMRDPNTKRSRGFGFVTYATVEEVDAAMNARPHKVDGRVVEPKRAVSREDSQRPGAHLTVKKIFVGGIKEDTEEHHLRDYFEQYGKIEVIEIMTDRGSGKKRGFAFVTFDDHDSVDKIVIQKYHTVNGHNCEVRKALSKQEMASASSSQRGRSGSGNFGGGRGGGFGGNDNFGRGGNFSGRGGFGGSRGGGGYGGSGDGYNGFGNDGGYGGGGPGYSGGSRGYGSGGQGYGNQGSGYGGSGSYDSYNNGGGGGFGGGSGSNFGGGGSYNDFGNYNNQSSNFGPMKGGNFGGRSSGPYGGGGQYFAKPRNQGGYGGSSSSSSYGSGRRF
UniProt Q96SB4: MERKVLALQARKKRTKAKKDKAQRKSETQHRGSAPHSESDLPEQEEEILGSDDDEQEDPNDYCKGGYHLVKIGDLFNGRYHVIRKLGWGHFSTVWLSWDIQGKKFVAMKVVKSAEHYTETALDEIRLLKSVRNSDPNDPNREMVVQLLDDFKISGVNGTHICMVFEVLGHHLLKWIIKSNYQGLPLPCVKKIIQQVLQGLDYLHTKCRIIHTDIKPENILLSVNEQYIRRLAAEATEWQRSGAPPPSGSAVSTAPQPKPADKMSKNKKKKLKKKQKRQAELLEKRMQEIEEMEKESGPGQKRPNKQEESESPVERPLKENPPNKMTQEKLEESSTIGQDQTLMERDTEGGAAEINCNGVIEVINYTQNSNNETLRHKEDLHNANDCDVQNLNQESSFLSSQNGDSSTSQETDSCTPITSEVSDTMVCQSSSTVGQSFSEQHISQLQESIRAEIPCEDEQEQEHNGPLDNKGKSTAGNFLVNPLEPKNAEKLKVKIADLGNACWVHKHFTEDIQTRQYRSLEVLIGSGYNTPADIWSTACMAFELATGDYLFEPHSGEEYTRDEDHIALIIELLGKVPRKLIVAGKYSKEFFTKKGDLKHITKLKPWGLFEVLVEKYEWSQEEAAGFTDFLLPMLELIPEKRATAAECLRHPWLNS

Target: Heterogeneous nuclear ribonucleoprotein A1 (human (endogenous in A549)) (UniProt P09651)
Experiment: co-IP; endogenous co-immunoprecipitation in A549 cells with anti-SRPK1 antibody or, vice versa, anti-hnRNPA1 antibody; western blot; IgG as negative control

binding: binds
Substance: Serine–arginine protein kinase 1 (from UniProt Q96SB4 1-655)
